Results deposited as PubChem BioAssay AID652243 (Drosophila RNAi Screening Center, 2013)
Assay: 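Knock-downs that decrease or increase androgen receptor reporter signal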 (primary screen). Cell system: Drosophila S2R+ cells. Knock-down reagent: long dsRNA against Drosophila genes. Timing: 72 h (48 h, then 24 h hormone). Treatment: synthetic androgen R1881 at 10 nM for 24 h. Detection: 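Firefly light from an androgen-responsive reporter and Renilla control light per well, raw and unnormalised, for each of two replicates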. Direction: firefly reporter light: higher = more light from androgen-responsive reporter; Renilla control light: higher = more constitutive control signal (cell number, transfection). Hit rule: 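Hit when the log firefly-to-Renilla ratio dropped or increased by a fixed fold versus the mean of GFP or LacZ controls across duplicate plates; lowering cut given as 1.5 and as 3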. Calls: active = hit: reporter lowered or raised; inactive = no hit.
The deposit covers about 24,000 reagents; this is a random part of those that have a named target and a result. In the full data, 246 (1%) are marked active. 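Plates not normalised; calls are printed but the firefly/Renilla ratio behind them is not deposited; fold cut for lowering reported inconsistently.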 Raw values vary from plate to plate and are shown uncorrected. A plus sign joins genes that one reagent is predicted to hit. Not stated in the record: the amount of reagent.

The first 2 records as a preview:
| target | dsRNA | firefly reporter light, replicate 1 | firefly reporter light, replicate 2 | Renilla control light, replicate 1 | Renilla control light, replicate 2 | activity call |
| --- | --- | --- | --- | --- | --- | --- |
| me31B | DRSC03569 | 8.51e5 | 9.90e5 | 1.36e6 | 2.04e6 | inactive |
| CG8654 | DRSC07231 | 1.42e6 | 6.42e5 | 1.58e6 | 6.43e5 | inactive |

The listing, repeating the preview:
| target | dsRNA | firefly reporter light, replicate 1 | firefly reporter light, replicate 2 | Renilla control light, replicate 1 | Renilla control light, replicate 2 | activity call |
| --- | --- | --- | --- | --- | --- | --- |
| me31B | DRSC03569 | 8.51e5 | 9.90e5 | 1.36e6 | 2.04e6 | inactive |
| CG8654 | DRSC07231 | 1.42e6 | 6.42e5 | 1.58e6 | 6.43e5 | inactive |
| CG32988 | DRSC02692 | 2.61e5 | 1.62e5 | 1.57e6 | 1.23e6 | inactive |
| CG14431 | DRSC17925 | 92671 | 1.21e5 | 2.91e6 | 2.54e6 | inactive |
| CG14431 | DRSC23593 | 7.67e5 | 8.32e5 | 1.10e6 | 1.16e6 | inactive |
| Nfs1 | DRSC02154 | 7.51e5 | 5.87e5 | 1.56e6 | 1.61e6 | inactive |
| CG6425 | DRSC16038 | 87143 | 1.19e5 | 5.95e5 | 6.30e5 | inactive |
| Aduk | DRSC16451 | 1.87e5 | 1.77e5 | 2.55e6 | 2.15e6 | inactive |
| Aduk | DRSC29838 | 6.34e5 | 4.29e5 | 1.45e6 | 1.55e6 | inactive |
| Aduk | DRSC37073 | – | – | – | – | inactive |
| CG7560 | DRSC10879 | 3.03e5 | 3.03e5 | 3.06e6 | 3.08e6 | inactive |
| gish | DRSC16154 | 46928 | 53332 | 5.24e5 | 6.60e5 | inactive |
| gish | DRSC36673 | – | – | – | – | inactive |
| Fer1HCH | DRSC16671 | 1.01e5 | 1.18e5 | 1.04e6 | 7.81e5 | inactive |
| Fer1HCH | DRSC39138 | 7.68e5 | 7.57e5 | 1.66e6 | 1.40e6 | inactive |
| comt | DRSC20319 | 5.60e5 | 3.94e5 | 3.78e6 | 2.61e6 | inactive |
| comt | DRSC25218 | 3.87e5 | 2.95e5 | 4.95e5 | 3.70e5 | inactive |
| Prosalpha1R + Prosalpha1 | DRSC07515 | 1.12e6 | 1.26e6 | 1.38e6 | 1.78e6 | inactive |
| Prosalpha1R + Prosalpha1 | DRSC29087 | 7.87e5 | 5.53e5 | 1.11e6 | 1.13e6 | inactive |
| CG33784 | DRSC38822 | 9.08e5 | 8.48e5 | 1.44e6 | 1.80e6 | inactive |
| Polr3I | DRSC19922 | 1.26e5 | 1.08e5 | 8.07e5 | 8.57e5 | inactive |
| CG6761 | DRSC10705 | 8.40e5 | 6.92e5 | 9.59e5 | 8.85e5 | inactive |
| Pgant8 | DRSC10801 | 1.38e5 | 1.80e5 | 1.64e6 | 1.38e6 | inactive |
| Pgant8 | DRSC26909 | 4.00e5 | 3.75e5 | 6.14e5 | 7.55e5 | inactive |
| unc-45 | DRSC15449 | 1.08e5 | 1.31e5 | 1.23e6 | 1.23e6 | inactive |
| CG5078 | DRSC11762 | 2.23e5 | 2.01e5 | 1.84e6 | 1.54e6 | inactive |
| Manf | DRSC14091 | 1.01e5 | 89122 | 9.93e5 | 7.55e5 | inactive |
| Ns2 | DRSC06993 | 6.58e5 | 4.80e5 | 6.64e5 | 6.65e5 | inactive |
| Ns2 | DRSC29008 | 5.18e5 | 4.98e5 | 1.13e6 | 9.90e5 | inactive |
| CG13293 | DRSC09967 | 65718 | 74222 | 1.30e6 | 1.07e6 | inactive |
| Pbp95 | DRSC15448 | 57456 | 66326 | 1.27e6 | 1.51e6 | inactive |
| Pbp95 | DRSC27283 | 5.68e5 | 5.34e5 | 1.99e5 | 1.79e5 | inactive |
| CR46300 | DRSC37917 | 5.64e5 | 7.37e5 | 1.19e6 | 1.46e6 | inactive |
| Stim | DRSC20158 | 1.06e5 | 1.55e5 | 6.41e5 | 6.91e5 | inactive |
| CG43102 | DRSC14797 | 4.51e5 | 7.85e5 | 1.09e6 | 1.93e6 | inactive |
| CG43102 | DRSC16239 | 1.83e5 | 1.35e5 | 1.13e6 | 1.14e6 | inactive |
| CG43102 | DRSC28809 | 6.40e5 | 6.58e5 | 1.00e6 | 1.17e6 | inactive |
| mod(mdg4) + pre-mod(mdg4)-Z + pre-mod(mdg4)-T | DRSC13477 | 1.01e5 | 56107 | 39866 | 1.33e5 | inactive |
| mod(mdg4) + pre-mod(mdg4)-Z + pre-mod(mdg4)-T | DRSC17001 | 2.84e5 | 2.67e5 | 3.05e6 | 3.05e6 | inactive |
| rogdi | DRSC10906 | 15717 | 22528 | 1.83e5 | 2.30e5 | inactive |
| CG5327 + CG5493 | DRSC25926 | 6.35e5 | 6.50e5 | 7.16e5 | 8.78e5 | inactive |
| fl(2)d | DRSC07620 | 51767 | 1.58e5 | 1.48e6 | 1.48e6 | inactive |
| Qsox1 | DRSC06878 | 6.10e5 | 8.81e5 | 1.27e6 | 2.17e6 | inactive |
| Qsox1 | DRSC29927 | 4.25e5 | 5.05e5 | 1.39e6 | 1.07e6 | inactive |
| CG14309 | DRSC14788 | 1.34e5 | 2.29e5 | 1.65e6 | 1.78e6 | inactive |
| Cdk2 | DRSC16921 | 1.19e5 | 77627 | 8.47e5 | 8.93e5 | inactive |
| Cdk2 | DRSC36625 | – | – | – | – | active |
| CG1889 | DRSC18195 | 1.60e5 | 1.27e5 | 1.26e6 | 1.24e6 | inactive |
| CG1889 | DRSC27433 | 2.57e5 | 2.78e5 | 6.13e5 | 7.08e5 | inactive |
| CG5793 | DRSC15874 | 2.96e5 | 2.92e5 | 3.82e6 | 4.19e6 | inactive |
| CG5793 | DRSC26692 | 3.77e5 | 2.87e5 | 8.11e5 | 7.84e5 | inactive |
| Gbs-76A | DRSC11081 | 94975 | 23672 | 4.23e5 | 3.94e5 | active |
| Gbs-76A | DRSC36906 | – | – | – | – | inactive |
| Gbs-76A | DRSC36907 | – | – | – | – | inactive |
| Best4 | DRSC10792 | 2.70e5 | 1.98e5 | 1.69e6 | 1.77e6 | inactive |
| Best4 | DRSC29196 | 3.65e5 | 4.70e5 | 1.62e6 | 1.40e6 | inactive |
| Best4 | DRSC39053 | 6.04e5 | 6.04e5 | 1.89e6 | 2.25e6 | inactive |
| Nepl7 | DRSC02495 | 4.50e5 | 6.39e5 | 1.31e6 | 2.02e6 | inactive |
| Nepl7 | DRSC27685 | 2.64e5 | 2.09e5 | 5.20e5 | 7.83e5 | inactive |
